{
  "source": "paper PMC8994779",
  "binders": {"B1": {"name": "Islet cell autoantigen 69 (protein, UniProt P97411 1-478)", "chain": "MSGHKCYSWELQDRFAQDKSVVNKMQQKYWETKQAFIKATGKKEDEHVVASDADLDAKLELFHSIQRTCLDLSKAIVLYQKRICFLSQEENELGKFLRSQGFQDKTRAGKMMQATGKALCFSSQQRLALRNPLCRFHQEVETFRHRAISDTWLTVNRMEQYRTEYRGALLWMKDVSQELDPDLYKQMEKFRKVQTQVRLAKKNFDKLKMDVCQKVDLLGASRCNLLSHMLATYQTTLLHFWEKTSHTMAAIHESFKGYQPYEFTTLKSLQDPMKKLVEKEGKKTSWRENREAVAPEPRQLISLEDEHKDSSAYKTEEGTSVLSSVDKGSVHDTCSGPIDELLDGKPEEACLGPTAGTPEPESGDKDDLLLLNEIFSTSCLDEGEFSREWAAVFGDDQLKEPAPMGAQGEPDPKPQIGSGFLPSQLLDQNMKDLQASLQEPAKAASDLTAWFSLFADLDPLSNPDAVGKTDKEHELLNA"}},
  "target": "T1, STING (mouse (endogenous in cardiac tissue)) (UniProt Q3TBT3)",
  "T1 sequence": "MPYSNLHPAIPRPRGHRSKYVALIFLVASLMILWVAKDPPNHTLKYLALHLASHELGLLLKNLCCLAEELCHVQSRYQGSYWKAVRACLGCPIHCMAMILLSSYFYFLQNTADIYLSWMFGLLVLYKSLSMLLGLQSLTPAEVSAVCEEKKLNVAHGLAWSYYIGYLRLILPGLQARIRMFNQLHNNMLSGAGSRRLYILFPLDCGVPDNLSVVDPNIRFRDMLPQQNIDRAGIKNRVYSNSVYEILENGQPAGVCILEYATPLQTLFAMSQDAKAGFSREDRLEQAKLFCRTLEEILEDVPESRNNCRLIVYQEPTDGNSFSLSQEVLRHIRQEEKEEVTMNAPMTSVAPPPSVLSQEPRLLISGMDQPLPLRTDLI",
  "test": "co-IP; lysate of homogenized cardiac tissue of mice given LPS (10 mg/kg) or PBS for 12 h; mouse anti-ICA69 antibody (sc-271489) with Protein A/G PLUS-Agarose at 4 °C overnight, four washes with RIPA buffer, western blot; the reverse precipitation of STING is told in the results only",
  "note": "Results are given in words; binding and its absence hold for the method and conditions named. In cells and extracts the contact can be indirect. Some entries that bind do so weakly or less than the wild type.",
  "data": [
    {"binder": "B1", "values": [
      {"measurement": "binding", "result": "binds"}
    ]}
  ]
}
